Laboratory results published in PubChem BioAssay AID504467 (National Center for Advancing Translational Sciences (NCATS), 2011).
In all, about 330,000 compounds went through this assay and about 7,700 (2.3%) were called active. Inconclusive results, whose numbers are uncertain, are shown with a selection of clear calls. Calls follow the shape of the dose curve; as a rule, active = well fitted inhibition curve with a large enough effect; inconclusive = small, poorly fitted or top-dose-only effect, or effect the other way; inactive = flat fitted curve, though single readings scatter. A potency beside an inconclusive call is a rough fit, not a confirmed value.

Test: qHTS screen for small molecules that inhibit ELG1-dependent DNA repair in human embryonic kidney (HEK293T) cells expressing luciferase-tagged ELG1; also: nearly all actives have a fitted effect of over 55% in size
Details: HEK293T ELG1-luciferase reporter, luminescence, 16 h, DNA damage induced by 5-fluorouridine; series mostly up to 46.1 µM
Summary of the method: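 Step one: seed 2,000 cells per well. Step two: pin-transfer compound or DMSO alongside 5-fluorouridine. Step three: incubate 16 hr, 37 °C, 5% CO2. Step four: add ONE-Glo, wait 30 min, read luminescence.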
Potency is read from the fitted curve at half-maximal effect.

SMILES | Potency
[O-]/C(=C(\C(=S)Nc1cccc2ccccc12)[n+]1ccccc1)c1ccc(OC(F)F)cc1 | inconclusive: 13 µM [inhibitor, partial curve, poor fit]
COCCCNC(=O)c1cc(-c2cccnc2)nc2ccc(S(=O)(=O)N3CCCCCC3)cc12 | inconclusive: 29.1 µM [activator, partial curve, poor fit]
CCOC(=O)C(CC)(CC)C(=O)/C=C/c1ccc(OC)cc1 | inconclusive: 3.26 µM [inhibitor, single point]
O=[N+]([O-])c1cccc(C2CC(c3ccccc3)=NN2c2ccccc2)c1 (stereo not drawn) | inactive
Cc1cccc(-c2nnc(-c3cccc(NC(=O)Cc4cccs4)c3)o2)c1 | inconclusive: 25.9 µM [inhibitor, single point]
COc1ccc(NC(=O)CN2C(=O)NC(C)(c3ccccc3)C2=O)c(OC)c1 (stereo not drawn) | inactive
O=C(CCNS(=O)(=O)c1ccccc1C(F)(F)F)NCCCN1CCOCC1 | inactive
CCn1cc(CN2CCc3c([nH]c4ccccc34)C2c2cccc(OC)c2OC)c(C)n1 (stereo not drawn) | inconclusive: 29.1 µM [inhibitor, single point]
CC(=O)N1c2ccc(S(=O)(=O)N3CCC(C(=O)N4CCC(C)CC4)CC3)cc2CC1C (stereo not drawn) | inconclusive: 20.6 µM [inhibitor, partial curve, poor fit]
COc1ccc(NC(=O)Cn2c(NCC(C)O)nc3ccccc32)cc1Cl (stereo not drawn) | inactive
Cc1cccc(/C=C/c2nc3ccccc3c(=O)[nH]2)c1 | inconclusive: 2.31 µM [activator, full curve]
O=C(Nc1ncccc1O)c1ccc(S(=O)(=O)N2CCCC2)cc1 | inconclusive: 20.6 µM [activator, partial curve]
Cc1cccc(-c2cc3c(N=O)c4ccccc4c-3n[nH]2)c1 | inconclusive: 1.3 µM [activator, partial curve]
CC(C)=CCSc1nnc([C@@H](NC(=O)OC(C)(C)C)C(C)C)o1 | inconclusive: 10.3 µM [inhibitor, partial curve, poor fit]
COC(=O)COc1ccc(Cl)cc1C1Nc2ccccc2C(=O)N1c1ccc(OC)cc1 (stereo not drawn) | inconclusive: 29.1 µM [activator, partial curve, poor fit]
CCNc1ccc(S(=O)(=O)N(C)C)cc1NCC(=O)Nc1ccc(Br)cc1F | inconclusive: 16.4 µM [inhibitor, partial curve]
O=C(COc1ccc(Cl)cc1Cl)NCc1ccco1 | inconclusive: 18.4 µM [activator, partial curve]
N#CCCCc1cc2ccccc2cn1 | inconclusive: 18.3 µM [activator, single point]
COc1ccc(CNC(=S)N/N=C/c2ccc(OC)c(OC)c2)cc1 | inconclusive: 32.6 µM [activator, partial curve, poor fit]
COc1ccc(CCN2C(=O)CSC2=Nc2ccc(C(C)C)cc2)cc1OC | active: 4.11 µM
Cc1ccc(NC2CCCN(C(=O)c3snnc3C)C2)cc1C (stereo not drawn) | inconclusive: 32.6 µM [activator, partial curve, poor fit]
CCCCOc1ccc(/C(N)=N/O)cc1 | inconclusive: 23.1 µM [activator, single point]

SMILES | Potency
CCN(CC)CCCNC(=O)c1cn(-c2cccc(OC)c2)c(=O)c2ccccc12 | inconclusive: 9.2 µM [activator, partial curve, poor fit]
COc1ccc(/C=N/NC(=O)c2ccc3c(c2)OCO3)cc1 | inconclusive: 18.3 µM [activator, single point]
Fc1ccc(/C=C2\CCCC3=C2Nc2ncnn2C3c2ccc(F)cc2)cc1 (stereo not drawn) | active: 4.61 µM
CSCC[C@H](N)C(=O)N1CCC(C(=O)N[C@H](C)C(=O)NC(C)c2ccccc2)CC1 (stereo partly drawn) | inactive
COc1ccccc1C(=O)NCCSCc1c(F)cccc1Cl | inconclusive: 4.61 µM [activator, partial curve, poor fit]
O=C(OCc1ccc(O)cc1)c1c(-c2ccsc2)oc2ccc(N3CCOCC3)cc12 | inconclusive: 25.9 µM [inhibitor, single point]
O=C1C(=O)N(CCOCCO)C(c2ccccn2)/C1=C(\O)c1ccccc1 (stereo not drawn) | inconclusive: 25.9 µM [activator, single point]
Oc1ccc(/C=N/N(c2ccccc2)c2ccccc2)cc1O | inconclusive: 29.1 µM [inhibitor, single point]
CC(C(=O)N(C)C1CCS(=O)(=O)C1)N1C(=O)/C(=C/c2ccc(F)cc2)SC1=S (stereo not drawn) | inactive
CC(=O)N1CCN(c2ccc(Oc3nnnn3-c3ccccc3)cc2)CC1 | inconclusive: 16.4 µM [inhibitor, partial curve]
COc1ccc(/C=C/C(=O)OCC(=O)c2c(C)[nH]c3ccccc23)cc1OC | inconclusive: 23.1 µM [inhibitor, single point]
CC[n+]1ccc(C(=O)NCc2ccccc2)cc1 | inactive
CC1CCC/C(=C\Nc2ccc(O)cc2)C1=O (stereo not drawn) | inconclusive: 5.17 µM [activator, single point]
CC(=O)N/C(=C/c1ccc(OS(=O)(=O)c2ccc(C)cc2)cc1)C(=O)NCCCO | inactive
Cc1cc(NC(=O)CSc2nc3ccccc3n2CC(C)C)no1 | inconclusive: 6.51 µM [inhibitor, full curve]
COc1ccc(/C=N/NC(=O)c2ccn[nH]2)cc1CSc1ccccn1 | inconclusive: 9.2 µM [activator, partial curve]
Cc1cc(C)c2nc(C)cc(Nc3ccc(C(=O)N(C)C)cc3)c2c1 | inactive
COC(=O)c1ccc(C2c3[nH]c4ccccc4c3C[C@H]3C(=O)N(C)CC(=O)N23)cc1 (stereo partly drawn) | inactive
Fc1ccccc1/C=N/NC(=S)Nc1ccc(Cl)cc1Cl | inconclusive: 0.92 µM [inhibitor, full curve, poor fit]
COc1ccc([C@H]2CC(=O)C=C(c3cccc(OC)c3)C2)cc1 | inconclusive: 18.3 µM [inhibitor, single point]
O=C(NC1CCCCC1)C(c1ccncc1)N(Cc1ccccc1)C(=O)c1ccc(-c2ccccc2)[nH]1 (stereo not drawn) | inactive

Part of the list above in order of SMILES length, rising:
SMILES | Potency
COc1ccc(CNC(=S)N/N=C/c2ccc(OC)c(OC)c2)cc1 | inconclusive: 32.6 µM [activator, partial curve, poor fit]
Cc1cc(C)c2nc(C)cc(Nc3ccc(C(=O)N(C)C)cc3)c2c1 | inactive
CCN(CC)CCCNC(=O)c1cn(-c2cccc(OC)c2)c(=O)c2ccccc12 | inconclusive: 9.2 µM [activator, partial curve, poor fit]
